Laboratory results taken from PMC3598691.
These are yes or no findings as the source states them, for the method shown. In cells and extracts the contact can be indirect. Some entries that bind do so weakly or less than the wild type. Where a sequence is shown, tags or fusion partners need not be part of it. One block for each binder: values may come before it.

What was measured:
[1] = target: T1, FLAG-dADA2bL (Drosophila melanogaster) (UniProt Q8I8V0); test: co-IP; FLAG- and HA-tagged proteins co-expressed in S2 cells; lysis in RIPA buffer (150 mM NaCl, 1% NP-40, 0.5% SDS); lysates incubated overnight with anti-FLAG M2-agarose beads; five washes with TBST (400 mM NaCl, 1% Tween 20); blots with anti-HA and anti-FLAG
T1 sequence: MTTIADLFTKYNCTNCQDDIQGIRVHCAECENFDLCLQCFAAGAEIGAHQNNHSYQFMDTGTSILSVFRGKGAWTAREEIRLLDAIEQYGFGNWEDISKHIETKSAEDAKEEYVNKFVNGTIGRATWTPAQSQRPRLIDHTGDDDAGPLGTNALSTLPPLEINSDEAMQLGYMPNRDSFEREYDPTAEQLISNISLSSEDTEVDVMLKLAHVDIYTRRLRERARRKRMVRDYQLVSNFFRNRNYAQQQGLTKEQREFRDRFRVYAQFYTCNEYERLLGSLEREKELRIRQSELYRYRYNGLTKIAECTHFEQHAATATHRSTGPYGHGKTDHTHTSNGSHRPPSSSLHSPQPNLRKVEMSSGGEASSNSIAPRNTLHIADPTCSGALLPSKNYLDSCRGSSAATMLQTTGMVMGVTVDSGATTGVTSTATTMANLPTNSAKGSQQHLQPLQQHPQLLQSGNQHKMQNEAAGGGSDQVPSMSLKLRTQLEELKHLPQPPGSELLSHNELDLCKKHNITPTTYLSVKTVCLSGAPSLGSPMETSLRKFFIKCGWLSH

[2] = target: T2, FLAG-dADA2bS (Drosophila melanogaster) (UniProt Q8I8V0); test: as above
T2 sequence: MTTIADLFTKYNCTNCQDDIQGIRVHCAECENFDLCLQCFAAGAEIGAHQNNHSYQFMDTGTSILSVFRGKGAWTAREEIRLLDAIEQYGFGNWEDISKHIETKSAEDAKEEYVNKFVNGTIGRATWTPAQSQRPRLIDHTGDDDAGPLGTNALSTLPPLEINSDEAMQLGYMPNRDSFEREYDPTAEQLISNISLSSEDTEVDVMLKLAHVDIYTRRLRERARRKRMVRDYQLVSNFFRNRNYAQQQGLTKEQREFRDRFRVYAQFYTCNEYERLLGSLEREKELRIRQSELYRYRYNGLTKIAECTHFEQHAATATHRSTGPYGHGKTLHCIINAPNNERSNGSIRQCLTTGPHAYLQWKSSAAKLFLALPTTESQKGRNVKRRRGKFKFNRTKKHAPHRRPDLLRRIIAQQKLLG

binding [1]: binds
B1: HA-dADA2bS (protein, UniProt Q8I8V0-2 1-418)
chain: T2 sequence

binding [2]: binds
B2: HA-dADA2bL (protein, UniProt Q8I8V0-1 1-555)
chain: T1 sequence
